Test results from patent US20130336885A1 (Genentech, published 2013).
Results are given in words; binding and its absence hold for the method and conditions named. Some entries that bind do so weakly or less than the wild type. For some of these results: Where a sequence is shown, tags or fusion partners need not be part of it.

T1: gD epitope-tagged cynomolgus monkey LgR5 expressed on stably transfected 293 cells (cynomolgus monkey)
T1 sequence: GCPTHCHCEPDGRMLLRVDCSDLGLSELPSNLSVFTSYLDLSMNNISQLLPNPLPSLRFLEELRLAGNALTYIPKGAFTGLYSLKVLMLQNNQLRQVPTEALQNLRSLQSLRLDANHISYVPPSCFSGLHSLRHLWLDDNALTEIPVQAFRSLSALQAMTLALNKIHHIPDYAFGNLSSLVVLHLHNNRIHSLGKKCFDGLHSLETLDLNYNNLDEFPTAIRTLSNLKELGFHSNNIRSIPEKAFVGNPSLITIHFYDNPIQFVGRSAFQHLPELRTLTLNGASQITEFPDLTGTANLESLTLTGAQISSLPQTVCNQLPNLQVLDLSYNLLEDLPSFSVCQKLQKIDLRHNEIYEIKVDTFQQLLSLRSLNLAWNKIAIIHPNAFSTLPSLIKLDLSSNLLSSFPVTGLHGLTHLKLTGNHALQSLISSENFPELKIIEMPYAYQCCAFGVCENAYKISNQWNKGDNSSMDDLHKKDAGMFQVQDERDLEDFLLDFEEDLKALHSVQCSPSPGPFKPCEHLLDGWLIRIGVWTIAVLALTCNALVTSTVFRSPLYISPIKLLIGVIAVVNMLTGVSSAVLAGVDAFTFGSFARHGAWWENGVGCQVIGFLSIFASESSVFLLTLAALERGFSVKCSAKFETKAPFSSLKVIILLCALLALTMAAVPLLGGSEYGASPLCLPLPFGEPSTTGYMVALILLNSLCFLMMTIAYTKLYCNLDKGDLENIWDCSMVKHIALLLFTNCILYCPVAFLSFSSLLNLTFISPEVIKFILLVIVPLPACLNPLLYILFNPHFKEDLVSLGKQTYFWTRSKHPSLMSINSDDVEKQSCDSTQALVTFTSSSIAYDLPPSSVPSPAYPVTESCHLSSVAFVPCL

T2: LgR5 endogenously expressed on LoVo colon cancer cells and D5124 pancreatic tumor cells (UniProt O75473)
T2 sequence (looked up): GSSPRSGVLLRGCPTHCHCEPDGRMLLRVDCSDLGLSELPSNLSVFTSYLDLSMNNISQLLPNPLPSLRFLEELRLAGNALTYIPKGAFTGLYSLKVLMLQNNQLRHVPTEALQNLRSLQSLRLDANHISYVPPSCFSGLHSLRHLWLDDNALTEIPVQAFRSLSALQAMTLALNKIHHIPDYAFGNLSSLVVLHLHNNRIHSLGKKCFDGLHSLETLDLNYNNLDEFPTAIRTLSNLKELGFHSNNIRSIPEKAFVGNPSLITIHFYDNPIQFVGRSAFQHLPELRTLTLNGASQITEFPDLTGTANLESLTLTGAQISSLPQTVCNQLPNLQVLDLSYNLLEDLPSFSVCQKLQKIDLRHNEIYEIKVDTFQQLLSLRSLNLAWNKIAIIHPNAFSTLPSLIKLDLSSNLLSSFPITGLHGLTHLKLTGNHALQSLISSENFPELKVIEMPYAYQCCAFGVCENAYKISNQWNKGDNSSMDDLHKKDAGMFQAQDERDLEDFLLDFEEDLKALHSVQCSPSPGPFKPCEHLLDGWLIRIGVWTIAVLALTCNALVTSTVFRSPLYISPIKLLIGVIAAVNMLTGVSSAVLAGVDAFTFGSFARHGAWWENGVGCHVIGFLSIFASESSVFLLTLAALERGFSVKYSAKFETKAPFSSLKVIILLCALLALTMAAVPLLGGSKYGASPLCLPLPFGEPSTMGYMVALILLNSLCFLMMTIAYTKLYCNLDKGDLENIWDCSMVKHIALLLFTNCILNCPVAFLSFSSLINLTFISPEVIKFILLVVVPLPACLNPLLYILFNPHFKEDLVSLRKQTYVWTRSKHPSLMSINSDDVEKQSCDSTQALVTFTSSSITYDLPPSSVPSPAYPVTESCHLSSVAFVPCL

T3: Human LgR5 ECD (amino acids 22-555) with an N-terminal FLAG, expressed in CHO cells (human) (UniProt O75473)
T3 sequence (looked up): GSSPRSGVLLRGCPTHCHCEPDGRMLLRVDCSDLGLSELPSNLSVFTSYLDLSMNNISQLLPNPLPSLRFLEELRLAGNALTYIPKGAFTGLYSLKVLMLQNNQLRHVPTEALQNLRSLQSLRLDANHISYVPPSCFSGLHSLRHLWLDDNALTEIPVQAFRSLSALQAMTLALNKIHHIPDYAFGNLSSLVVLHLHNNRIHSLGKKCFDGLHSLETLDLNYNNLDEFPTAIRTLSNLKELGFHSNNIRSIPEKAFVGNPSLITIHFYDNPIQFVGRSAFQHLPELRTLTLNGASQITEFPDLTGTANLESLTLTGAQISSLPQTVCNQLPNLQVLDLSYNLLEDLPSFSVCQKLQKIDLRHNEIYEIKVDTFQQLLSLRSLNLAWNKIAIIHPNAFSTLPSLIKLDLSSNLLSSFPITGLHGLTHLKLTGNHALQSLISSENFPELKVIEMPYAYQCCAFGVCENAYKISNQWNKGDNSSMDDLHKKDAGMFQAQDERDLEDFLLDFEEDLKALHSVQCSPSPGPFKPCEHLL


Tests used:
[1] = target: T1, gD epitope-tagged cynomolgus monkey LgR5 expressed on stably transfected 293 cells (cynomolgus monkey); test: FACS on stably transfected 293 cells, 10 µg/ml antibody
[2] = target: T1, gD epitope-tagged cynomolgus monkey LgR5 expressed on stably transfected 293 cells (cynomolgus monkey); test: FACS on 293 cells stably transfected with gD epitope-tagged LgR5, 10 ug/ml antibody, R-Phycoerythrin goat anti-human detection
[3] = target: T2, LgR5 endogenously expressed on LoVo colon cancer cells and D5124 pancreatic tumor cells; test: FACS on LoVo cells
[4] = target: T2, LgR5 endogenously expressed on LoVo colon cancer cells and D5124 pancreatic tumor cells; test: FACS on D5124 tumor cells
[5] = target: T3, Human LgR5 ECD (amino acids 22-555) with an N-terminal FLAG, expressed in CHO cells (human); test: phage ELISA, plate-coated LgR5 ECD

| Binder | binding [1] | binding [2] | binding [3] | binding [4] | binding [5] |
| --- | --- | --- | --- | --- | --- |
| human antibody YW353 (antibody, human IgG1, kappa, V domains shown, also called huYW353) VH: EVQLVESGGGLVQPGGSLRLSCAASGFTFTSYSISWVRQAPGKGLEWVAEIYPPGGYTDYADSVKGRFTISADTSKNTAYLQMNSLRAEDTAVYYCAKARLFFDYWGQGTLVTVSS VL: DIQMTQSPSSLSASVGDRVTITCRASQDVSTAVAWYQQKPGKAPKLLIYSASFLYSGVPSRFSGSGSGTDFTLTISSLQPEDFATYYCQQSYTTPPTFGQGTKVEIKR | binds | binds | binds | binds | – |
| chimeric monoclonal antibody 8E11 (antibody, human IgG1, V domains shown, also called ch8E11; chimeric 8E11) VH: QVQLQQSGTELMKPGASVKISCKATGYTFSAYWIEWIKQRPGHGLEWIGEILPGSDSTDYNEKFKVKATFSSDTSSNTVYIQLNSLTYEDSAVYYCARGGHYGSLDYWGQGTTLKVSS VL: NIVLTQSPASLAVSLGQRATISCRASESVDNYGNSFMHWYQQKPGQPPKLLIYLASNLESGVPARFSGSGSRTDFTLTIDPVEADDAATYYCQQNYEDPFTFGSGTKVEIKR | binds | binds | – | – | – |
| humanized monoclonal antibody 8E11.v2 (antibody, human IgG1, kappa, V domains shown, It was assessed as an IgG; also called hu8E11.v2; hu8E11v2) VH: EVQLVQSGAEVKKPGASVKVSCKASGYTFSAYWIEWVRQAPGQGLEWIGEILPGSDSTDYNEKFKVRATFTSDTSTSTVYLELSSLRSEDTAVYYCARGGHYGSLDYWGQGTLVTVSS VL: DIVMTQSPDSLAVSLGERATINCRASESVDNYGNSFMHWYQQKPGQPPKLLIYLASNLESGVPDRFSGSGSGTDFTLTISSLQAEDVAVYYCQQNYEDPFTFGQGTKVEIKR | binds | binds | – | – | – |
| mouse monoclonal antibody 8E11 (antibody, mouse IgG1, V domains shown) VH: QVQLQQSGTELMKPGASVKISCKATGYTFSAYWIEWIKQRPGHGLEWIGEILPGSDSTDYNEKFKVKATFSSDTSSNTVYIQLNSLTYEDSAVYYCARGGHYGSLDYWGQGTTLKVSS VL: NIVLTQSPASLAVSLGQRATISCRASESVDNYGNSFMHWYQQKPGQPPKLLIYLASNLESGVPARFSGSGSRTDFTLTIDPVEADDAATYYCQQNYEDPFTFGSGTKVEIKR | – | – | – | binds | – |
| YW353 phage-displayed Fab (clone from the human synthetic phage antibody library, before reformatting to IgG) (Fab, V domains shown) VH: EVQLVESGGGLVQPGGSLRLSCAASGFTFTSYSISWVRQAPGKGLEWVAEIYPPGGYTDYADSVKGRFTISADTSKNTAYLQMNSLRAEDTAVYYCAKARLFFDYWGQGTLVTVSS VL: DIQMTQSPSSLSASVGDRVTITCRASQDVSTAVAWYQQKPGKAPKLLIYSASFLYSGVPSRFSGSGSGTDFTLTISSLQPEDFATYYCQQSYTTPPTFGQGTKVEIKR | – | – | – | – | binds |
